Experimental data published in patent US20250250335A1.
No constants are given. Whether binding was seen depends on the method and setting. A result given as binding can be weak or reduced; the word gives no strength.

Columns and labels:
monkey CEACAM6 (monkey) [1] = assay: ELISA on coated protein, OD450
monkey CEACAM6 (monkey) [2] = assay: ELISA on coated protein
monkey CEACAM5 (monkey) [3] = assay: ELISA on coated protein, OD450
monkey CEACAM5 (monkey) [4] = assay: ELISA on coated protein

Row | Binder | binding (monkey CEACAM6 (monkey) [1]) | binding (monkey CEACAM6 (monkey) [2]) | binding (monkey CEACAM5 (monkey) [3]) | binding (monkey CEACAM5 (monkey) [4])
1 | Antibody 13 (antibody, V domains shown) VH: EVKLVESGGGLVQPGGSLSLSCTASGFTLTDYYMSWVRQPPGRALEWLALIRNKVNGYTIEYSASVKGRFTISRDNSQSILYLQMNALRAEDSATYYCARDIGIRWYFDVWGAGTTVTVSS VL: QIVLSQSPAILSASPGEKVTMTCRASSSVSYMHWYQQKPGSSPKPWIYATSNLASGVPARFSGSGSGTSYSLTISRMEAEDAATYYCQQWSGNPPTFGGGTKLEIK | binds | binds |  | 
2 | Antibody 12 (antibody, V domains shown) VH: EVKLVESGGGLVQPGGSLSLSCAVSGFIFTDYFMSWVRQPPGKTLEWLALIRNKANGYIIEYSESVKGRFTISRGNSQSIFYLQMNALRTEDSATYYCARDIGIRWNFDVWGAGTTVTVSS VL: QIVLTQSPAIMSASPGEKVTMTCSATSRVTYMHWYQQKSGTSPKRWIYATSTLASGVPARFSGSGSGTSYSLTISSMEAEDAATYYCQQWSYNPPTFGSGTKLEIK | binds | binds |  | 
3 | Antibody 1 (antibody, V domains shown) VH: QVQLKQSGAELVRPGASVKLSCKTSGYIFTSYWIHWVKQRSGQGLEWIARIYPGTGSTYYNEKFKGKATLTADKSSSTAYMQLSSLKSEDSAVYFCARSGFPLTTVPLDYWGQGTTLTVSS VL: DVQITQSPSYLAASPGETITINCRASKSISKYLAWYQEKPGKTNKLLIYSGSTLQSGIPSRFSGSGSGTDFTLTISSLEPEDFAMYYCQQHNEYPFTFGSGTKLEIK | binds | binds |  | 

Further lines, results first:

Row | binding (monkey CEACAM6 (monkey) [1]) | binding (monkey CEACAM6 (monkey) [2]) | binding (monkey CEACAM5 (monkey) [3]) | binding (monkey CEACAM5 (monkey) [4]) | Binder
4 | binds | binds | binds | binds | Antibody 15 (antibody, V domains shown) VH: QVQLQQPGAELVKPGASVTLSCKASGYTFTSYWINWVKQRPGQGLEWIGNIYPYTSSSNYNEKFKGKATLTVDTSSNTAYMQLSGLTSDDSAVYFCARKGNIYYSYESYPLDFWGQGTSVTVSS VL: DIQMTQSSSSFSVSLGDRVTITCKASEDIYKQIGWYQQKPGNAPRLLIAGATSLETGVPSRFSGSGSGKDYMLNITSLQTEDVGSYYCQQYWSPPFTFGSGTKLEIK
5 | binds | binds | binds | binds | Antibody 14 (antibody, V domains shown) VH: EVQLVETGGGLVQPKGSLKLSCAASGFSFNTNAMNWVRQAPGKGLEWVARIRSKSNNYATYYADSVKDRFTISRDDSQSMLYLQMNNLKTEDTAMYYCVSFLSLMDYWGQGTSVTVSS VL: QIVLTQSPAIMSASPGEKVTMTCSASSSISYMHWYQQKPGTSPKRWIYDTSKLASGVPARFSGSGSGTSYSLTISSMEAEDAATYYCHQRSSYPWTFGGGTKLEIK
